Assay results reported in PubChem BioAssay AID504648 (National Center for Advancing Translational Sciences (NCATS), 2011).
Out of some 390,000 compounds screened, about 610 (0.16%) were called active. A call without a number means that no potency is given here. This list was built around the results that the source calls inconclusive (neither active nor inactive); the mix of calls is not that of the screen. The call rests on the fitted dose curve; in most records, active means well fitted inhibition curve with a large enough effect; inconclusive means small, poorly fitted or top-dose-only effect, or effect the other way, or another doubt; inactive means no such curve, though single readings can be large or run the other way. Where the call is inconclusive, the potency comes from a doubtful curve fit.

Experiment: Nrf2 qHTS screen for inhibitors: counterscreen for cytotoxicity
Conditions: A549 ARE-Fluc cells, CellTiter-Fluor viability, 18-24 h; series mostly up to 46 µM
How it was run: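 Cytotoxicity counterscreen: CellTiter-Fluor fluorescence was measured in A549 ARE_Fluc cells after 18-24 h of compound exposure in a concentration series. The subsequent BugLite luminescent read reports ARE-luciferase activity.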
Potency means the concentration at half of the fitted maximal effect.

SMILES | Potency
COc1ccc(-n2nnnc2S(=O)(=O)CC(=O)N2CCCCC2)cc1 | inconclusive: 18.4 µM [falling, single point]
COc1ccc(CC(=O)NCC(C)(C)N2CCOCC2)cc1 | inactive
Cc1ccc(C)c(Nc2ncccc2C(=O)NCc2cccs2)c1 | inconclusive: 29.1 µM [falling, single point]
CC(C)C[C@H](NC(=O)c1[nH]cnc1C(=O)N[C@@H](C)c1ccccc1)C(=O)OCc1ccccc1 | inconclusive: 18.4 µM [falling, single point]
Cc1ccc2cc3c(N)c(C(=O)Nc4c(C)[nH]c(=O)[nH]c4=O)sc3nc2c1 | inactive
Cc1cc(NC(=O)c2cccc(S(=O)(=O)N(C)C)c2)n(-c2ccccn2)n1 | inactive
COC(=O)c1sc(NC(=O)c2cc(-c3ccccc3)nc3ccccc23)c(C#N)c1C | inconclusive: 20.6 µM [falling, single point]
Cc1c(C(=O)NCCSCc2c(Cl)cccc2Cl)cccc1[N+](=O)[O-] | inactive
COC(=O)CNC(=O)CNC(=O)c1nn(-c2ccc(OC)c(Cl)c2)c(=O)c2ccccc12 | inactive
Cc1ccc(OCC(=O)N(Cc2ccco2)Cc2ccc(C)o2)cc1 | inactive
C=C(C)CNC(=S)N/N=C/c1c(F)cccc1F | inactive
NC(=O)c1ccc(NC(=O)c2cnc3ccccc3n2)cc1 | inconclusive: 18.4 µM [activator, single point]
Cc1cc(C)c(C)c(S(=O)(=O)N2CCC(C(=O)NNC(=O)c3ccccc3O)CC2)c1C | inconclusive: 23.1 µM [falling, partial curve, poor fit]
N#Cc1cc[n+](CC(=O)c2ccc(NC(=O)c3ccccc3)cc2)cc1 | inactive
COCCCNC(=O)CC1C[C@H](C(=O)N2CCCCC2)[C@@]2(C)c3[nH]c4ccc(OC)cc4c3CCN2C1=O (stereo partly specified) | inactive
C=CCn1c(COc2ccc(Cl)cc2)nnc1SCC(=O)N/N=C/c1cccc(O)c1 | inactive
Cc1cc(C(=O)NNC(=O)/C=C/c2ccco2)c(C)o1 | inactive
CS(=O)(=O)N1CCN(c2ccccc2NC(=S)NC(=O)c2cccs2)CC1 | inactive
Cn1cc([N+](=O)[O-])c(C(=O)Nc2sc3c(c2C#N)CCC3)n1 | inconclusive: 20.6 µM [falling, partial curve, poor fit]
O=C(Nc1ccc(S(=O)(=O)N2CCCC2)cc1)c1ccc([N+](=O)[O-])o1 | inconclusive: 23.1 µM [falling, single point]
CCc1ccc(-n2c(Cc3ccccc3)nnc2SCc2nc(-c3cccs3)no2)cc1 | inconclusive: 29.1 µM [falling, single point]

Some of these compounds in order of molar mass, low to high:
SMILES | Potency
C=C(C)CNC(=S)N/N=C/c1c(F)cccc1F | inactive
Cc1ccc2cc3c(N)c(C(=O)Nc4c(C)[nH]c(=O)[nH]c4=O)sc3nc2c1 | inactive
Cc1c(C(=O)NCCSCc2c(Cl)cccc2Cl)cccc1[N+](=O)[O-] | inactive
CC(C)C[C@H](NC(=O)c1[nH]cnc1C(=O)N[C@@H](C)c1ccccc1)C(=O)OCc1ccccc1 | inconclusive: 18.4 µM [falling, single point]
